# Measured values published in PubChem BioAssay AID1671190 (National Center for Advancing Translational Sciences (NCATS), 2021).
# Protein sequences, listed by entry. Tags and fused reporters are not part of them. Lines headed by an entry give the natural chain unless they say otherwise; changes in a name come on top.
# UniProt P18054: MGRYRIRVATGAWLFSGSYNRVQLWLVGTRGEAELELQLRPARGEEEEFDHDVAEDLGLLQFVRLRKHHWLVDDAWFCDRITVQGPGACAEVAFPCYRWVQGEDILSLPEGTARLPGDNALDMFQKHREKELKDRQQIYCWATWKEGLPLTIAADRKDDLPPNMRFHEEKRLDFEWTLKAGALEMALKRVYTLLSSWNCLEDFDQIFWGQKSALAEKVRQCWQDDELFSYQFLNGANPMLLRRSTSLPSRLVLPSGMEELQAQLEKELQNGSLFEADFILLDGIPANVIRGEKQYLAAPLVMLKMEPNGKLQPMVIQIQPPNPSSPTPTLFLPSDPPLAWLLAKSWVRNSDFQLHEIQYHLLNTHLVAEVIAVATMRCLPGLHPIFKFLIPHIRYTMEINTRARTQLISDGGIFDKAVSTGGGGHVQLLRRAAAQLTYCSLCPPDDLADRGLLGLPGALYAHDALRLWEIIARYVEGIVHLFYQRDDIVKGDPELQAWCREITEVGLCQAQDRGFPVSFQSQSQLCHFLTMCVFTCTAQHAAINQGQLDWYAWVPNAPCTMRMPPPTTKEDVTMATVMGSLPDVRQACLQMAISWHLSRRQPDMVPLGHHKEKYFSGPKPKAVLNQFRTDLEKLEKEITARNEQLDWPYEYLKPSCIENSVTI
# Out of some 580,000 compounds screened, about 6,100 (1.1%) were called active. Inconclusive results, whose numbers are uncertain, are shown with a selection of clear calls. The call rests on the fitted dose curve; in most records, active means well fitted inhibition curve with a large enough effect; inconclusive means small, poorly fitted or top-dose-only effect, or another doubt; inactive means no such curve, though single readings can be large or run the other way. Where the call is inconclusive, the potency comes from a doubtful curve fit.
# Target: Polyunsaturated fatty acid lipoxygenase ALOX12 (Homo sapiens) (UniProt P18054)
# Test: Primary qHTS assay for inhibitors of human arachidonate 12S-lipoxygenase (ALOX12): Round 2
# Conditions: purified 12hLO, xylenol orange hydroperoxide absorbance; activity change, negative = inhibition: at 108 µM (top of the series) unless noted
# How it was run: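 Purified human 12hLO at 150 nM in 25 mM Hepes, 0.01% Triton X-100, pH 7.0, preincubated 15 min at room temperature with compound. Reaction started with 40 uM arachidonic acid, 30 min at room temperature. Hydroperoxide measured by Fe-xylenol orange, 573/405 nm absorbance ratio.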
# On the % scale 0 is the no-effect control and ±100 the full control effect; potency means the concentration at half of the fitted maximal effect.
SMILES,Potency,"activity change, negative = inhibition"
C=CCN1C(=O)/C(=C/N(C)C)S/C1=N\S(=O)(=O)c1cccs1,"inconclusive: 126 µM [inhibitor, single point]",
CC1=CC(C)(C)NC(=S)N1c1cccc(Cl)c1,"inconclusive: 44.7 µM [inhibitor, partial curve, poor fit]",
CS(=O)c1ccc(-c2nc(-c3ccc(F)cc3)c(-c3ccncc3)[nH]2)cc1 (configuration not stated),"inconclusive: 39.8 µM [inhibitor, partial curve, poor fit]",
COc1cccc(Cn2c(=O)c(C)nc3cnc(N4CCNCC4)nc32)c1,"inconclusive: 50.1 µM [inhibitor, single point]",
COc1ccc(C(NC(=O)C2CCN(CCCOc3ccccc3)CC2)c2cccs2)cc1 (configuration not stated),"inconclusive: 44.7 µM [inhibitor, partial curve, poor fit]",
CC(C)c1cccc(-c2ccc3c(c2)S(=O)(=O)c2cccc(C(=O)NCc4ccco4)c2C3=O)c1,"inconclusive: 89.1 µM [inhibitor, single point]",
CCOc1cc(S(=O)(=O)NCCO)ccc1Br,"inconclusive: 158 µM [inhibitor, partial curve, poor fit]",
CCSc1ccc(-c2cc(NC=O)c3ncc(-c4cccc(C(=O)N(C)C)c4)n3c2)cc1,,inactive: -13.8%
O=[N+]([O-])c1cc2cccnc2c2ncccc12,"inconclusive: 79.4 µM [inhibitor, partial curve, poor fit]",
COC(=O)c1ccc(CNC(=O)CSc2nnc(COc3ccccc3)n2C)o1,,inactive: 0%
COc1ccc(C(C)(C)C)cc1-c1csc(N)n1,"inconclusive: 50.1 µM [inhibitor, partial curve, poor fit]",
COc1cccc(CN(C)C(=O)CSc2nc(-c3cccs3)nc3ccccc23)c1,"inconclusive: 28.2 µM [inhibitor, single point]",
COc1cc(C(=O)N2CCN(CCc3ccccn3)CC2)cc(OC)c1OC,"inconclusive: 5.01 µM [inhibitor, full curve]",
COc1ccccc1OCCOCCOc1ccccc1Cl,,inactive: 5.9%
O=C(NC(=O)c1ccc(C(F)(F)F)cc1)Nc1ccc(-c2cnco2)cc1,"inconclusive: 5.62 µM [inhibitor, partial curve, poor fit]",
O=C(CCc1c[nH]c2ccccc12)NCCCN1CCCCC1,"inconclusive: 79.4 µM [inhibitor, single point]",
CN(C)c1ccc2cc3c(c(S(=O)(=O)c4ccccc4)c2c1)CCC3,"inconclusive: 6.31 µM [inhibitor, partial curve, poor fit]",
CCCCC1=CC2=CC(=O)C(C)(OC(=O)CC)C(=O)C2=CO1 (configuration not stated),active: 35.5 µM,
C/C(=N\O)C(=O)NCc1ccccn1,,inactive: 13.4%
Cc1nnc(NC(=O)CSc2nc3c(c(=O)n(C)c(=O)n3C)n2C(C)C)s1,"inconclusive: 3.55 µM [inhibitor, full curve, poor fit]",
O=C(NCc1ccc(N2CCCC2)cc1)C1CCCN(c2cnn(Cc3ccccc3)c(=O)c2)C1 (configuration not stated),"inconclusive: 14.1 µM [inhibitor, partial curve, poor fit]",

SMILES,Potency,"activity change, negative = inhibition"
Cc1ccc(C)c(S(=O)(=O)NCc2ccc(C(=O)N3CCC(Cc4ccccc4)CC3)cc2)c1,,inactive: -5.73%
COc1ccc(Br)cc1CN(C)C(=O)C1=CC=CN2CCS(=O)(=O)N=C12,"inconclusive: 50.1 µM [inhibitor, partial curve, poor fit]",
Cc1nc2ccc(NC(=S)NCCCO)cc2nc1C,"inconclusive: 44.7 µM [inhibitor, partial curve, poor fit]",
Cc1ccc(-c2nc3ccccc3o2)cc1NC(=S)NC(=O)c1cc2ccccc2o1,,inactive: 8.12%
CCCc1c(C)nc(Nc2nc(C)c3cccc(OCC)c3n2)[nH]c1=O,,inconclusive: -35.7% [inhibitor]
CCC(NC(=S)NCc1ccc(F)cc1)c1ccccc1 (configuration not stated),"inconclusive: 50.1 µM [inhibitor, partial curve, poor fit]",
CCOC(=O)C1CC1CN1CCC2(CC1)Cc1ccccc1CNC2=O (configuration not stated),"inconclusive: 89.1 µM [inhibitor, partial curve, poor fit]",
CNc1nc2c(c(=O)[nH]c(=O)n2C)n1CC(O)COc1ccc(Cl)cc1 (configuration not stated),"inconclusive: 126 µM [inhibitor, single point]",
CC(C)NC(=O)C(=O)NCc1ccccn1,"inconclusive: 28.2 µM [inhibitor, partial curve, poor fit]",
Nc1ccccc1C(=O)Nc1cccc2ccccc12,"inconclusive: 0.398 µM [inhibitor, full curve, poor fit]",
S=C(N/N=C/C(c1ccccc1)c1ccccc1)Nc1ccccc1Cl,"inconclusive: 35.5 µM [inhibitor, partial curve, poor fit]",
CC/C=C(/C)C(=O)NCc1sccc1C,,inactive: 3.02%
Cc1ccc(NC(=O)C(=O)NCC(c2cccnc2)N2CCN(C)CC2)cc1F (configuration not stated),"inconclusive: 70.8 µM [inhibitor, partial curve, poor fit]",
N#CCSc1nc2cc(C(=O)NCc3ccccc3)ccc2c(=O)n1CCc1ccccc1,"inconclusive: 50.1 µM [inhibitor, partial curve, poor fit]",
Cn1c(=O)n(C/C=C/c2ccccc2)c(=O)c2c1nc1n2CCCN1c1ccc(F)cc1,,inconclusive: -51.3% [inhibitor]
COc1ccc(OC)c(S(=O)(=O)N2CCN(C(=O)c3cc4c(s3)CCCCC4)CC2)c1,,inactive: -14.4%
Cc1ccc(S(=O)(=O)N2CC=C(C(=O)NCc3ccc(F)cc3)CC2)cc1,,inactive: -11%
CCOC(=O)N1CCN(C(=O)c2ccc(Cl)c(S(=O)(=O)Nc3ccccc3)c2)CC1,,inactive: 0%
O=c1nc(-c2ccccc2Cl)c2cc(Br)ccc2[nH]1,"inconclusive: 112 µM [inhibitor, partial curve, poor fit]",
O=C(C1CC(=O)N(c2n[nH]c3cccc(F)c23)C1)N1CCN(c2cccc(Cl)c2)CC1 (configuration not stated),,inactive: 3.42%
O=C(NCc1cccnc1)c1ccc(-c2cc(Cl)ccc2Cl)o1,"inconclusive: 44.7 µM [inhibitor, partial curve, poor fit]",

# Single entries from the entries so far:
# Value of CC(C)NC(=O)C(=O)NCc1ccccn1 under Potency: inconclusive: 28.2 µM [inhibitor, partial curve, poor fit]
# Value of CNc1nc2c(c(=O)[nH]c(=O)n2C)n1CC(O)COc1ccc(Cl)cc1 (configuration not stated) under Potency: inconclusive: 126 µM [inhibitor, single point]
